In article doi:10.1101/2022.05.06.490860 (bioRxiv, 2022):

B1: GapB (NADP+-dependent glyceraldehyde-3 phosphate dehydrogenase) (enzyme, UniProt O34425 1-340)
chain: MKVKVAINGFGRIGRMVFRKAMLDDQIQVVAINASYSAETLAHLIKYDTIHGRYDKEVVAGEDSLIVNGKKVLLLNSRDPKQLPWREYDIDIVVEATGKFNAKDKAMGHIEAGAKKVILTAPGKNEDVTIVMGVNEDQFDAERHVIISNASCTTNCLAPVVKVLDEEFGIESGLMTTVHAYTNDQKNIDNPHKDLRRARACGESIIPTTTGAAKALSLVLPHLKGKLHGLALRVPVPNVSLVDLVVDLKTDVTAEEVNEAFKRAAKTSMYGVLDYSDEPLVSTDYNTNPHSAVIDGLTTMVMEDRKVKVLAWYDNEWGYSCRVVDLIRHVAARMKHPSAV
B2: YutI (protein, UniProt O32119 1-111)
chain: MCYNRESNFANQTIDFYCYTEYNGFMTTKGANVMTEVEMKEQVQEVLDKLRPFLLRDGGDCELVDVDEGIVKLRLLGACGSCPSSTITLKAGIERALLEEVPGVVEVEQVF
B3: KatA (endogenous, B. subtilis) (enzyme, UniProt P26901 1-483)
chain: MSSNKLTTSWGAPVGDNQNSMTAGSRGPTLIQDVHLLEKLAHFNRERVPERVVHAKGAGAHGYFEVTNDVTKYTKAAFLSEVGKRTPLFIRFSTVAGELGSADTVRDPRGFAVKFYTEEGNYDIVGNNTPVFFIRDAIKFPDFIHTQKRDPKTHLKNPTAVWDFWSLSPESLHQVTILMSDRGIPATLRHMHGFGSHTFKWTNAEGEGVWIKYHFKTEQGVKNLDVNTAAKIAGENPDYHTEDLFNAIENGDYPAWKLYVQIMPLEDANTYRFDPFDVTKVWSQKDYPLIEVGRMVLDRNPENYFAEVEQATFSPGTLVPGIDVSPDKMLQGRLFAYHDAHRYRVGANHQALPINRARNKVNNYQRDGQMRFDDNGGGSVYYEPNSFGGPKESPEDKQAAYPVQGIADSVSYDHYDHYTQAGDLYRLMSEDERTRLVENIVNAMKPVEKEEIKLRQIEHFYKADPEYGKRVAEGLGLPIKKDS
B4: SufA (protein, UniProt O32113 1-120)
chain: MSNPVTITEAAALHIKDMMKEHEEENAFLRVGVKGGGCSGLSYGMGFEHEKSESDSVFDQHGITVLVDKESLDIMNGTVIDYKQSMLGGGFTIDNPNAIASCGCGSSFRTATNAGKPEEC
B5: YwfI (protein, UniProt P39645 1-254)
chain: MSEQQMTNEAAKTLDGWYALHDFRTMDWASWKLLSSDERQSIIHEFTGLLEKWGVAQKEGKGSQTLYSIVGQKADFMLMILRPTMEELNQIELEFNKSRLAEFTIPAYSYVSVVELSNYLASGDGDPYENPHVRARLYPELPESKYVCFYPMDKRRSGNDNWYMLSMEERRNLMRSHGLIGRSYAGKVKQIITGSVGFDDYEWGVTLFSDDVLQFKKLVYEMRFDEVSARYGEFGSFFVGNHLSLDTLPQFLYV
B6: YjoA (protein, UniProt O34334 1-154)
chain: MCQSNQIVSHFLSHRNVTNELAEKISKDHYSYKPAETSMSAEELVKHILTSFHLFANVIKEGNASPFQNKQEETETDLNVLAKTYTEKTVAILEQLTEEQLDREIDLTSAFGRKVTGRALLQLAMEHEIHHKGNLFVYVREMGHTELPFYQQRM
B7: TrxA (thioredoxin) (protein, UniProt P14949 1-104)
chain: MAIVKATDQSFSAETSEGVVLADFWAPWCGPCKMIAPVLEELDQEMGDKLKIVKIDVDENQETAGKYGVMSIPTLLVLKDGEVVETSVGFKPKEALQELVNKHL
B8: AhpC (protein, UniProt P80239 1-187)
chain: MSLIGKEVLPFEAKAFKNGEFIDVTNEDLKGQWSVFCFYPADFSFVCPTELEDLQEQYAALKELGVEVYSVSTDTHFVHKGWHDSSEKISKITYAMIGDPSQTISRNFDVLDEETGLADRGTFIIDPDGVIQTVEINAGGIGRDASNLVNKVKAAQYVRQNPGEVCPAKWEEGGETLTPSLDLVGKI
B9: SufD (protein, UniProt O32165 1-437)
chain: MTLGTKLSVDQEYLKSFSEKHQEPAWLKNLRLQALEQAEDLPMPKPDKTKITNWNFTNFAKHTVDNEPLSSLEDLTDEVKALIDIENEDKTLYVQRDQTPAHLSLSQELKDKGVIFTDILTAAREHSDLVEKYFMKDGVKVDEHKLTALHAALVNGGAFLYVPKNVQVETPVQAVYVHESNDTALFNHVLIVAEDHSSVTYVENYISTVNPKDAVFNIISEVITGDNASVTYGAVDNLSSGVTTYVNRRGAARGRDSKIEWALGLMNDGDTISENTTNLYGDGTYGDTKTVVVGRGEQTENFTTQIIHFGKASEGYILKHGVMKDSASSIFNGIGKIEHGASKANAEQESRVLMLSEKARGDANPILLIDEDDVTAGHAASVGRVDPIQLYYLMSRGIPKEEAERLVIYGFLAPVVNELPIEGVKKQLVSVIERKVK

Molecular target: T1, 3×FLAG-2×Strep-YjoB (B. subtilis) (UniProt O34703)
T1 sequence: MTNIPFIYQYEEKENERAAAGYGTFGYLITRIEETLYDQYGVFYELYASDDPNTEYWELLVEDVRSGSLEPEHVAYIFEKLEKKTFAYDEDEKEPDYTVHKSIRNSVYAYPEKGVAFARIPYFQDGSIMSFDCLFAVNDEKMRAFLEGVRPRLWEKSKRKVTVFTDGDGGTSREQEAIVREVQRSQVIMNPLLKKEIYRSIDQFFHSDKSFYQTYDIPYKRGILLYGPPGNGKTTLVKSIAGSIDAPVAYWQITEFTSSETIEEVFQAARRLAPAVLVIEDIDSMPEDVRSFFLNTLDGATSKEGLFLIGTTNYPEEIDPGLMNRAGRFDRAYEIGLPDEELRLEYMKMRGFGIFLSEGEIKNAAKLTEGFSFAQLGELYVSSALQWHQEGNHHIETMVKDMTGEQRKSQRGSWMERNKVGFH
Assay: affinity purification with mass spectrometry

binding, binds:
YphP
YqiW
B1
B2
B3
B4
B5
B6
B7
B8
B9

No constants are given. Whether binding was seen depends on the method and setting. In cells and extracts the contact can be indirect. Here binding means that the protein was enriched with, or labelled near, the bait; the list need not be complete. Sequences can lack the tags named with a protein.
